# Results as given in PubChem BioAssay AID2099 (Broad Institute, 2009).
# Protein sequences, listed by entry. Tags and fused reporters are not part of them. Residues count along the entry.
# UniProt Q9H3R0, 1-420 limits assumed: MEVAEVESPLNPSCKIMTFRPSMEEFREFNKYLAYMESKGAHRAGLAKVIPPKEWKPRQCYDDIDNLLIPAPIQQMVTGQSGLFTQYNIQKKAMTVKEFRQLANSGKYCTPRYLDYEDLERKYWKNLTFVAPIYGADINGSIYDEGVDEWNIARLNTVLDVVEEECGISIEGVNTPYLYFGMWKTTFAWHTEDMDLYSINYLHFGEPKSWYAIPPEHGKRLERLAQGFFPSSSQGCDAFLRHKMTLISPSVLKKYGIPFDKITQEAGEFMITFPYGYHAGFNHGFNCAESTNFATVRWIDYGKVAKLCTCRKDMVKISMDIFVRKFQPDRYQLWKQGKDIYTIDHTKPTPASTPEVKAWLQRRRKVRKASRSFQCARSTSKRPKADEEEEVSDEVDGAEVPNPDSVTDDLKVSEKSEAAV
# Out of some 330,000 compounds screened, about 230 (0.07%) were called active. The shares of active, inactive and inconclusive entries below differ from those in the screen.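 How the source made its calls: active means more than half of a compound's replicate wells show inhibition beyond 50%, single wells judged on their own value; inconclusive means some, but no more than half, of replicates pass 50% inhibition; inactive means no replicate passes 50% inhibition.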
# Biological target: Lysine-specific demethylase 4C (Homo sapiens) (UniProt Q9H3R0)
# Assay: inhibitors of GASC-1 histone demethylase, primary screen, biochemical, fluorescence, DELFIA europium (AID 2099);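 further: signal counts dimethyl H3K9 product captured on neutravidin plate; 0% = median of DMSO wells and 100% = 0.3 times that DMSO median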
# Conditions: GST-JMJD2C(1-420) H3K9me3 demethylation, at 2.35 µM, stronger effect = higher value
row,SMILES,inhibition
1,Cc1ccc(NC(=O)[C@H](C)NC(=O)C2CCN(C(=O)[C@H](CC(C)C)NC(=O)OC(C)(C)C)CC2)cc1,inconclusive: -50.4%
2,COc1ccccc1N(CC(=O)NC1CCCCC1)S(=O)(=O)c1ccccc1,inactive: 4.82%
3,Cc1cc(C)c(NC(=O)C2CCCN2CCOC(=O)c2ccccc2)c(C)c1 (stereo not drawn),inconclusive: -56%
4,CCCOc1ccc(CNC(=O)CCC(=O)n2ncc3cc(C)ccc32)cc1,inactive: 2.52%
5,Cc1ccc(NC(=O)CCSCCC(=O)Nc2ccc(C)c(C)c2)cc1C,inconclusive: -80.9%
6,Cc1nc2ccc(NC(=O)c3cc(Cl)ccn3)cc2s1,inactive: 0.89%
7,CCC(=O)Nc1c2c(nc3c1CCC3)CCCC2,inconclusive: -61.3%
8,Cc1cccc(NC(=S)NCc2ccc3c(c2)cc(C)n3C)c1C,inactive: -0.166%
9,COc1cc2nc(N3CCN(C(=O)C4COc5ccccc5O4)CC3)nc(N)c2cc1OC (stereo not drawn),inconclusive: -23.5%
10,Cc1cccc(OCCCC(=O)Nc2ccc(N3CCCCC3)cc2)c1C,inconclusive: -178%
11,C[C@@H]1O[C@@H](OC2C(O)C(OCCc3ccc(O)c(O)c3)OC(CO)C2OC(=O)/C=C/c2ccc(O)c(O)c2)[C@H](O)[C@H](O)[C@H]1O (stereo partly drawn),inconclusive: -281%
12,O=C(NC1CCCC1)C1CCN(S(=O)(=O)c2cccc3cccnc23)CC1,inconclusive: -393%
13,COc1ccc(S(=O)(=O)NCC(c2ccc3c(c2)OCO3)N2CCN(c3ccccc3)CC2)cc1 (stereo not drawn),inactive: -0.119%
14,O=P(c1ccccc1)(c1ccccc1)C(O)c1ccncc1 (stereo not drawn),inactive: -0.285%
15,O=C1ON=C(c2ccc([N+](=O)[O-])cc2)/C1=C/c1ccccc1O,inactive: 5.37%
16,Cn1cc(Br)c(-c2cccc(NC(=O)CCCC(=O)O)c2)n1,inconclusive: -77.7%
17,COc1ccc(Cl)cc1-c1nc(SCC(=O)N(C)C)n[nH]1,inactive: -32.1%
18,CC(=O)N1c2ccc(S(=O)(=O)N3CCCCC3)cc2CC1C(=O)Nc1ccc(C)cc1 (stereo not drawn),inconclusive: -90.4%
19,CCCCCCOc1ccc(N2C(=O)CC(N3CCC(C(=O)OCC)CC3)C2=O)cc1 (stereo not drawn),inactive: -1.84%
20,Cc1cccc2cc(C#N)c(SCCN3CCCCC3)nc12,active: 102%
21,OC(COc1ccc2ccccc2c1Br)Cn1cnc(-c2ccccc2)c1 (stereo not drawn),active: 60.6%
22,Cc1ccc(P(=O)(CC(=O)O)c2ccc(C)cc2)cc1,inconclusive: -126%
23,O=C(O)c1ccc(N=Nc2c(O)[nH]c3ccccc23)cc1,inactive: -10.2%
24,CCC(NC(=O)c1oc2ccccc2c1COC)c1ccc(OC)cc1 (stereo not drawn),inconclusive: -89.1%
25,N#CC(C(=O)c1ccc(S(=O)(=O)N2CCCCCC2)cc1)c1nc2ccccc2[nH]1 (stereo not drawn),inconclusive: -24.7%
26,CCn1c(C)cc(/C=C2/NC(=O)N(CC(=O)Nc3cccc(C)c3)C2=O)c1C,inactive: -2.66%
27,CCC(C)N(C(=O)Cn1nnc(-c2ccc(Cl)cc2)n1)C1CCS(=O)(=O)C1 (stereo not drawn),inconclusive: -36.2%

row,SMILES,inhibition
1,O=C(COc1ccccc1)NCC(c1ccco1)N1CCN(c2ccc(F)cc2)CC1 (stereo not drawn),inconclusive: -49.6%
2,Cc1onc(-c2ccccc2)c1C(=O)Nc1ccc(N2CCOCC2)cc1,inactive: 3.31%
3,CC(C)CNc1nc2c(c(=O)n(C)c(=O)n2C)n1Cc1cccc(Br)c1,inconclusive: -101%
4,O=c1cc(-c2ccccc2)oc2ccccc12,inactive: 4.75%
5,CN(C)c1ccc2c3c(ccc(N(C)C)c13)COC2,inconclusive: -58.6%
6,COc1ccc(-n2c(C)cc(C(=O)CSc3nn4c(=O)c(C(C)(C)C)nnc4s3)c2C)cc1,inconclusive: -59.4%
7,CC(=O)c1cccc(S(=O)(=O)N2CCCC(c3nc4c(nnn4Cc4cccc(Cl)c4)c(=O)[nH]3)C2)c1 (stereo not drawn),inactive: -12.4%
8,O=C(NCC(c1ccco1)N1CCc2ccccc21)c1ccccc1F (stereo not drawn),inconclusive: -167%
9,COc1ccc(CS(=O)(=O)c2ncn[nH]2)cc1,inconclusive: -68.2%
10,Cc1ccc(S(=O)(=O)NCc2ccc(C(=O)N3CCN(Cc4ccccc4)CC3)cc2)cc1,inconclusive: -50.1%
11,C[C@@H]1CC[C@]2(C(=O)O[C@@H]3O[C@H](CO)[C@@H](O)[C@H](O)[C@H]3O)CC[C@]3(C)C(=CCC4[C@@]5(C)CC[C@H](O[C@@H]6OC[C@H](O)[C@H](O[C@@H]7O[C@H](CO)[C@@H](O)[C@H](O)[C@H]7O)[C@H]6O)C(C)(C)C5CC[C@]43C)C2[C@]1(C)O (stereo partly drawn),inactive: 0.806%
12,CN(C)c1nc2sc3c(c2c(=O)n1C)CC(C)(C)OC3,inactive: 4.47%
13,COC(=O)N/N=C/c1c[n+]([O-])c2ccccc2[n+]1[O-],inconclusive: -52.7%
14,Cc1cc(=O)oc2c(C)c(OC(C)C(=O)NCC(O)c3ccccc3)ccc12 (stereo not drawn),inconclusive: -98.8%
15,O=C(COC(=O)CC1CC2CCC1C2)Nc1cc([N+](=O)[O-])ccc1F (stereo not drawn),inactive: -17.3%
16,CCc1cccc(OCC(=O)N(C)CC(=O)Nc2cccc(F)c2)c1,inconclusive: -24%
17,NC(=O)NC(CCC(=O)O)C(=O)O (stereo not drawn),inconclusive: -89.6%
18,COc1ccc(C2(C(=O)Nc3ccc(C)c(C)c3)CCOCC2)cc1,inactive: 1.99%
19,Cc1ccc(CN2CCNC(=O)C2CC(=O)NCCCn2cccn2)o1 (stereo not drawn),inconclusive: -70.3%
20,N#Cc1cc(-c2ccccc2)nnc1Sc1ccccc1,active: 102%
21,CC(C)C[C@H](N)c1nnc(SCc2ccc(Cl)cc2)o1,inconclusive: -58.8%
22,CC(=O)Nc1sc(NC(=O)c2ccc([N+](=O)[O-])cc2)nc1-c1cccs1,inactive: -0.81%
23,Cc1cccc(/C=N/NC(=O)c2ccc(NC(=O)c3ccc(F)cc3)cc2)n1,inactive: -6.84%
24,CCOc1ccc(-n2cc(-c3ccc(OC)c(OC)c3)[nH]c2=S)cc1,inactive: 37.1%
25,Cc1[nH]nc2c1C(c1cccs1)C1=C(CC(C)(C)CC1=O)N2 (stereo not drawn),inactive: 0.16%
26,Cc1cc(C(=O)COC(=O)C2=NNC(=O)CC2)c(C)n1-c1cccc(C(F)(F)F)c1,inconclusive: -81.6%

# Looked up above:
# Entry for Cc1onc(-c2ccccc2)c1C(=O)Nc1ccc(N2CCOCC2)cc1 under inhibition: inactive: 3.31%
# Entry for O=C(COC(=O)CC1CC2CCC1C2)Nc1cc([N+](=O)[O-])ccc1F (stereo not drawn) under inhibition: inactive: -17.3%
